This is an account of results in paper doi:10.1101/2021.03.11.435010.

Protein sequences, listed by entry. Tags and fused reporters are not part of them. Lines headed by an entry give the natural chain unless they say otherwise; changes in a name come on top.
UniProt P51946: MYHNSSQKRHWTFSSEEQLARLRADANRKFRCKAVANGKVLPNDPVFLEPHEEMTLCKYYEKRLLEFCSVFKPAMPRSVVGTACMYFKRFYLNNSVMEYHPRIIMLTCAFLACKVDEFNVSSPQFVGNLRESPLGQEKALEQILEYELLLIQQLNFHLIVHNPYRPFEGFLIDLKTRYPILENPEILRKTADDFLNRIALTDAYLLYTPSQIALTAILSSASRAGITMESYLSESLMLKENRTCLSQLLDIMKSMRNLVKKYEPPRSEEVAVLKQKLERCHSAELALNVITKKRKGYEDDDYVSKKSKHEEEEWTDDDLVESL
UniProt P51948: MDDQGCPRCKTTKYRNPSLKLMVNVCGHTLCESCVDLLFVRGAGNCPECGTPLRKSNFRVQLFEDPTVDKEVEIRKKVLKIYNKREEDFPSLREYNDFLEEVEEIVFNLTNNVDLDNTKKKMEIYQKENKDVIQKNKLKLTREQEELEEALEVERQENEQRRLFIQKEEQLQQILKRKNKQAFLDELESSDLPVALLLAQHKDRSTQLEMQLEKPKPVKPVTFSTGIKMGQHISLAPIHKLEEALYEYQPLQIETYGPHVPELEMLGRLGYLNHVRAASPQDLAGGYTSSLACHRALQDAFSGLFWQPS
UniProt O75586: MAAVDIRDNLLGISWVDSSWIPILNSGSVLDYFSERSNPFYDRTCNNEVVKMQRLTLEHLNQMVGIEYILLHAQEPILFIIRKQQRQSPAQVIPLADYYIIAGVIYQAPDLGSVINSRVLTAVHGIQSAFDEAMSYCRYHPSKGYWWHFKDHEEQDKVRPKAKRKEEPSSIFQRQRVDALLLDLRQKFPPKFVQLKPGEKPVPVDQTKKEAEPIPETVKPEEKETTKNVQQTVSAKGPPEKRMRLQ
UniProt Q96G25: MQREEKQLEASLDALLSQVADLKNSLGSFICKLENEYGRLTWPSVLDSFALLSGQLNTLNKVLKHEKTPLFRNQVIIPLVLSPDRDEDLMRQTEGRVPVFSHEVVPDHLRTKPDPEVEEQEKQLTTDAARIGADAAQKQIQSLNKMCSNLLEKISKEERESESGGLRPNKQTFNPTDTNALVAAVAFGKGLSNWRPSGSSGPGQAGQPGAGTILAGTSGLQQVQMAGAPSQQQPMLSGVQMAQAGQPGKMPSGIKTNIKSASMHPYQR
UniProt Q9P086: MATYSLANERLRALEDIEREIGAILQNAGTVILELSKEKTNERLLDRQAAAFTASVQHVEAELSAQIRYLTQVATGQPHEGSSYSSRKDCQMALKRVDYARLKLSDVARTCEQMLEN
UniProt Q9NVC6: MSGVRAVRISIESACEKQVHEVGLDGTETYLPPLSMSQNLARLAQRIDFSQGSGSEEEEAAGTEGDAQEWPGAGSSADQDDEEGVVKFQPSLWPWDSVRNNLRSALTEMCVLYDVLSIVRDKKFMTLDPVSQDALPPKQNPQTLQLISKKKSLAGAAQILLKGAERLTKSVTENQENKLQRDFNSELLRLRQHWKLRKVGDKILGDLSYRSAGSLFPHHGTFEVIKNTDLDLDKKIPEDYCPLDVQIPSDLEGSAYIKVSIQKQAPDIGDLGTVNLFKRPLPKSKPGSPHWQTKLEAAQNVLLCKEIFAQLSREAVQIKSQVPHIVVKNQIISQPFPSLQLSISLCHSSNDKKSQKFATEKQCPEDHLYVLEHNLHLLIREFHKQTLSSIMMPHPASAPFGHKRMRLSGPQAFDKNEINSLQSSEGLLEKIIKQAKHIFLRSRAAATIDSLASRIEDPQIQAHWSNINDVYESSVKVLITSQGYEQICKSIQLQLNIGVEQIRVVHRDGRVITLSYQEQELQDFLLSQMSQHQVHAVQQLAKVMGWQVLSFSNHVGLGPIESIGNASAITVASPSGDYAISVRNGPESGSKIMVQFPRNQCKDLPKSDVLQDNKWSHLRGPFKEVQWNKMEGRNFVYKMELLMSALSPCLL
UniProt Q9BUE0: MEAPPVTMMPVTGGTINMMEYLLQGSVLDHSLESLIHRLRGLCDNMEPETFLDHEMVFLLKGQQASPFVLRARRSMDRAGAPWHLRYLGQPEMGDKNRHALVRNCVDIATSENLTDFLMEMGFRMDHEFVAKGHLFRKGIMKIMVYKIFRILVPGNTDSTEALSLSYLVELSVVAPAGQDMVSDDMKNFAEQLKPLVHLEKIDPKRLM
UniProt Q9H944: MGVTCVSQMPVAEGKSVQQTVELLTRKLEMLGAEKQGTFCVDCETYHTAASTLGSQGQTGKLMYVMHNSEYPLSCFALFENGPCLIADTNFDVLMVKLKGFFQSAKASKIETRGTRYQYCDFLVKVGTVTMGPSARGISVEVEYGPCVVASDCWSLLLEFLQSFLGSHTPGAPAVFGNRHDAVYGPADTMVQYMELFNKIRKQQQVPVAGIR
UniProt Q15528: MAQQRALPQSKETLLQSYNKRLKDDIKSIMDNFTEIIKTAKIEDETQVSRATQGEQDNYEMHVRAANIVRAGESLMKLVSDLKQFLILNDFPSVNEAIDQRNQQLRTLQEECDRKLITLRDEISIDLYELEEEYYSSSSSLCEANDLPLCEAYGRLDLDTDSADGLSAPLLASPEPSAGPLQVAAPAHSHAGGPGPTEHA
UniProt O95402: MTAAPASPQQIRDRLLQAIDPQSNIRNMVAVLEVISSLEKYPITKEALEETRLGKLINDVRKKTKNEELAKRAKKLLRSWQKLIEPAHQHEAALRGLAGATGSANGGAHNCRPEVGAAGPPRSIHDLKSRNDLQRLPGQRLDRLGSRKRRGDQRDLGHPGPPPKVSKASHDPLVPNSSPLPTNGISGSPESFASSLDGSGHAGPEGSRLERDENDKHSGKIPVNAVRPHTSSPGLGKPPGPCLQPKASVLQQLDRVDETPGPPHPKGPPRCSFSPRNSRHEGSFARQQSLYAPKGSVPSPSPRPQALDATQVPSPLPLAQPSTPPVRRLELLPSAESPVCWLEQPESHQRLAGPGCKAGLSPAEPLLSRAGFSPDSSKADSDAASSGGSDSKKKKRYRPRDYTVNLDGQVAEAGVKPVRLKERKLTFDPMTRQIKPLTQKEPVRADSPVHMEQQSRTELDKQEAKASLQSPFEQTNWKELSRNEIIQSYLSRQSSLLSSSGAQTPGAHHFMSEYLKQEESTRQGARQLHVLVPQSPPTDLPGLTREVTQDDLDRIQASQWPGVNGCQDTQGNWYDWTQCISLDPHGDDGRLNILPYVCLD
UniProt Q6P2C8: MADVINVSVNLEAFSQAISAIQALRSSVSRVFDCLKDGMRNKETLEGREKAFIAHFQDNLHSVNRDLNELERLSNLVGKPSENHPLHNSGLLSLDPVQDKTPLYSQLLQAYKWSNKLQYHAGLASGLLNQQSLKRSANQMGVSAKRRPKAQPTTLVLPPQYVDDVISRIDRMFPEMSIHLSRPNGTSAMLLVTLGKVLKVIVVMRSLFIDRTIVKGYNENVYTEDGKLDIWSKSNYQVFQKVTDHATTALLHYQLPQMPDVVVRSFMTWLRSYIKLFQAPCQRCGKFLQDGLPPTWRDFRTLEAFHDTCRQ
UniProt Q9H204: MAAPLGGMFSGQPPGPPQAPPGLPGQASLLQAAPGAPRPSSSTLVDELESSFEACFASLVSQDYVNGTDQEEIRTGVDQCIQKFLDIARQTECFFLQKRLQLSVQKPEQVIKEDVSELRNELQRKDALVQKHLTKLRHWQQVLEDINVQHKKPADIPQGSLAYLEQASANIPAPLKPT
UniProt Q9NX70: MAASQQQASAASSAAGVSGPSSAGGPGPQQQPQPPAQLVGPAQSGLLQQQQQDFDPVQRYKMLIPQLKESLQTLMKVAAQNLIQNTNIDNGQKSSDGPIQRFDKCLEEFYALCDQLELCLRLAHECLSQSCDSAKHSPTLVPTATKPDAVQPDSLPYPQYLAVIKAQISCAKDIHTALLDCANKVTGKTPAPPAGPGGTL
UniProt Q96HR3: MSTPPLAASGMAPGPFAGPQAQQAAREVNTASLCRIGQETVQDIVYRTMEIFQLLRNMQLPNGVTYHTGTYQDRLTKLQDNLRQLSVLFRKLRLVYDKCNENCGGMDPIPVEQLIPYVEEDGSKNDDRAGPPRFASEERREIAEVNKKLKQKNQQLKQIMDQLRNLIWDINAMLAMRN
UniProt O43513: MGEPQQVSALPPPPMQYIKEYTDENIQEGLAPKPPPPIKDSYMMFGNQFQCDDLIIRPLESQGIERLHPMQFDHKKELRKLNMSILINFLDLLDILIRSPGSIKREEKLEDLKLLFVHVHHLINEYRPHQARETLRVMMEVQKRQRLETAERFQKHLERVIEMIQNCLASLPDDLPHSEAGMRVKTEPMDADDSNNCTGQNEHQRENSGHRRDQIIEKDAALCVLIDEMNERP
UniProt Q9NWA0: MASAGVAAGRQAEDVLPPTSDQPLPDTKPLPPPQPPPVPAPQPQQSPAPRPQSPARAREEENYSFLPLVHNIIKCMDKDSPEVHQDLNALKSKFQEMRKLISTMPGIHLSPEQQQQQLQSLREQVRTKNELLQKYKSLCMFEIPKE
UniProt Q9BTT4: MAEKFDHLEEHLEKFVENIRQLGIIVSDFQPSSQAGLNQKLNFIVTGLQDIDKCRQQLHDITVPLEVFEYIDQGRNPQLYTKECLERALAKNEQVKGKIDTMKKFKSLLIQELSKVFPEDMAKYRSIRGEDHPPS
UniProt O60244: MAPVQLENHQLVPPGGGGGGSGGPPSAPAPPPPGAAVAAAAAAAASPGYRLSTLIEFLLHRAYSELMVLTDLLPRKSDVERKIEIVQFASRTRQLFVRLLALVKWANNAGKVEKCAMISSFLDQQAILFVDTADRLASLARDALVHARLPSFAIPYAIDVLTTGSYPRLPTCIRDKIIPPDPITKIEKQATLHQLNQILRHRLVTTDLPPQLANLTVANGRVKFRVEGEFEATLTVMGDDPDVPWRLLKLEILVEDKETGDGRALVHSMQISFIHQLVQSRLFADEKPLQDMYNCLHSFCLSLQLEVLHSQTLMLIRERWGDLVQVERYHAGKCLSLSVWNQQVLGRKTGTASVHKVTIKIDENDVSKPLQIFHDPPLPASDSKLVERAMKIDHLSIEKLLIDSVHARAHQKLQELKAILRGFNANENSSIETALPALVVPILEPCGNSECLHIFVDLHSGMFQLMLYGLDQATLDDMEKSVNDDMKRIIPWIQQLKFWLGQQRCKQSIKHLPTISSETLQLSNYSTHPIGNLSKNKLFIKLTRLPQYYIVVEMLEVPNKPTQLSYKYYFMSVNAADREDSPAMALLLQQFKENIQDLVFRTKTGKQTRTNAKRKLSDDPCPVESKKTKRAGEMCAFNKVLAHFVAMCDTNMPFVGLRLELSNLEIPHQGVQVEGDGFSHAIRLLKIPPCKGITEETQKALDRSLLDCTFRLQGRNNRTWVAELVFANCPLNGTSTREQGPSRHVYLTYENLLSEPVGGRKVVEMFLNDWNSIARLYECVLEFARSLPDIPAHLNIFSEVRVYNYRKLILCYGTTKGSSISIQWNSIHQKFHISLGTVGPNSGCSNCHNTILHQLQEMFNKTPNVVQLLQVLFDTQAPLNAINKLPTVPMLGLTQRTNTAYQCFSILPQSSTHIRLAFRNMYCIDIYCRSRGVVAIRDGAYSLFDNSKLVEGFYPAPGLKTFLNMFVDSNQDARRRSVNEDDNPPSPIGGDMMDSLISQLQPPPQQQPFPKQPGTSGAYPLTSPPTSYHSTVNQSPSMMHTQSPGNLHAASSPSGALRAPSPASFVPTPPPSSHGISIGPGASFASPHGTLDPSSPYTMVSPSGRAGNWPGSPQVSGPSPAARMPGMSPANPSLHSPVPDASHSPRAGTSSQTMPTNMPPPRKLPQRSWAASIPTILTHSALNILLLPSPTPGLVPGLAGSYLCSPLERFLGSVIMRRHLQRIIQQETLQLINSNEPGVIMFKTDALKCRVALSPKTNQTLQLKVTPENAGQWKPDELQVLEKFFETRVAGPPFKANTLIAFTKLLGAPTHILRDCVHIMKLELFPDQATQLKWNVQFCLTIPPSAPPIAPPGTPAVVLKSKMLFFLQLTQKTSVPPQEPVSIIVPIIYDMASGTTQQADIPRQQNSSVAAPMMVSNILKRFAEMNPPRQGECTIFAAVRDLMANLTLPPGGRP
UniProt A0JLT2: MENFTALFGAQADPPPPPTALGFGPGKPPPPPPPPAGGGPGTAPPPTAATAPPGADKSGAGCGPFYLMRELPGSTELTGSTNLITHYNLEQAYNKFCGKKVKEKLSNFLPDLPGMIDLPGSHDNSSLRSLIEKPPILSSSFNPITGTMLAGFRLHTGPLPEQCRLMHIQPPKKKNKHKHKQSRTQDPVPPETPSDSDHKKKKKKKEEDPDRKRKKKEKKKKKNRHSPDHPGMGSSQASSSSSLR
UniProt Q13503: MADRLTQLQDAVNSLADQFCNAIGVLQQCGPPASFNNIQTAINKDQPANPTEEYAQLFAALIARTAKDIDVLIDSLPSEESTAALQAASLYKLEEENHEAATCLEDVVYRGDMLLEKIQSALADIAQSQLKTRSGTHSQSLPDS
UniProt Q9Y3C7: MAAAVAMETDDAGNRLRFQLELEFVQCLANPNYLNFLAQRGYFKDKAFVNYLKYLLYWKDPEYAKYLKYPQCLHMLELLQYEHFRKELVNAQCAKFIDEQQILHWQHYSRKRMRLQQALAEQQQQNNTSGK

Results are given in words; binding and its absence hold for the method and conditions named.

One assay has as its target cyclin H (human) (UniProt P51946). The assay is described as follows: cryo-EM structure.
The next assay concerns the target MAT1 (human) (UniProt P51948). Description: cryo-EM structure.

On to “20-subunit recombinant human Mediator (from UniProt O75586;Q96G25;Q9P086;Q9NVC6;Q9BUE0;Q9H944;Q15528;O95402;Q6P2C8;Q9H204;Q9NX70;Q96HR3;Q9NPJ6;O43513;Q9NWA0;Q9BTT4;O60244;A0JLT2;Q13503;Q9Y3C7) (complex)”, for which the binding result with cyclin H (human) and with MAT1 (human) was “no binding” each time.
